This note sets out measurements from article PMC10770960.

Amino acid sequences for entries named in this document (tags omitted). Residues count along the entry.
UniProt Q02053: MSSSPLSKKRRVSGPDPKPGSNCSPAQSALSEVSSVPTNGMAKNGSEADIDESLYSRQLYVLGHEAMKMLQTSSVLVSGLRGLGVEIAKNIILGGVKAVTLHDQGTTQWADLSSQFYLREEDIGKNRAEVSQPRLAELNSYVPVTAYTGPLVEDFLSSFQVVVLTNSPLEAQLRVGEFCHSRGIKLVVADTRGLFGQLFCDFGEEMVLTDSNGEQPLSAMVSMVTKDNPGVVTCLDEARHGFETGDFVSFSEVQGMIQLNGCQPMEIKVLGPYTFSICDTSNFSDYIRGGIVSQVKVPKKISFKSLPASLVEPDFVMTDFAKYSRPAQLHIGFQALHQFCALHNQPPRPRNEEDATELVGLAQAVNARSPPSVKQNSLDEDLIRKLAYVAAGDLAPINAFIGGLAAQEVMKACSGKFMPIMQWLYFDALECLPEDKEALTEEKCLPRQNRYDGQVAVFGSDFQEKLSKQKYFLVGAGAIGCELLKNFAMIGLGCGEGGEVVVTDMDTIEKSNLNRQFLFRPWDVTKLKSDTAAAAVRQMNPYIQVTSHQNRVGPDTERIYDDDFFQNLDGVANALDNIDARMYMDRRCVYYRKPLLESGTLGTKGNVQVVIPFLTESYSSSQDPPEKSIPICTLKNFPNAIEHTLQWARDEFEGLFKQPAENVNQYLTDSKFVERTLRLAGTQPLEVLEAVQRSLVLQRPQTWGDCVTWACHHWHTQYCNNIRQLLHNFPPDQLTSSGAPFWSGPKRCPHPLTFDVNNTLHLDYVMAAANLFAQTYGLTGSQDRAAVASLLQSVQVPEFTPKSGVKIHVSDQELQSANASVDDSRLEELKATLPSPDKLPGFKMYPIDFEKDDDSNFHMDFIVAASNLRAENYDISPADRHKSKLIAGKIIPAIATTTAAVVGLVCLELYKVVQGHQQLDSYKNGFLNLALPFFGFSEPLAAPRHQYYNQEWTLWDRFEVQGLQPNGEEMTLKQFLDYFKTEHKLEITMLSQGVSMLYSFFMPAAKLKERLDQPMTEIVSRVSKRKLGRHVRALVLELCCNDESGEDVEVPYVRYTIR
UniProt Q64339, residues 1-155: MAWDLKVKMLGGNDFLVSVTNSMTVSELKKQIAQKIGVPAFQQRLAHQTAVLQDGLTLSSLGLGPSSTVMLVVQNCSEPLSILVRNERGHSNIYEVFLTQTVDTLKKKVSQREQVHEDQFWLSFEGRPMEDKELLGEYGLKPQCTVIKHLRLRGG

Where two headings read alike, the source gives them in different places. Results are given in words; binding and its absence hold for the method and conditions named. In cells and extracts the contact can be indirect. A yes stands for co-enrichment or nearness to the bait. Other partners may have been found. Where a sequence is shown, tags or fusion partners need not be part of it.

Assay [1] deals with T1, GFP-Rab34 (UniProt Q64008).
T1 sequence: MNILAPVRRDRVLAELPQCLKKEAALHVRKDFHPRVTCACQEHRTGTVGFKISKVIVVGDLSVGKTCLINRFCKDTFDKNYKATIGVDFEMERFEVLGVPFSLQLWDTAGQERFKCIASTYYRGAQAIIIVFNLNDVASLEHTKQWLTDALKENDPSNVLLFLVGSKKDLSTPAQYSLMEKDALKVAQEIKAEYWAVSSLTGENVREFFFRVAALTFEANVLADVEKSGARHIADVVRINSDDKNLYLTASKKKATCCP
The assay is described as follows: affinity purification with mass spectrometry; 3T3-L1 cells transfected at D6 with GFP-Rab34 or mock vector, anti-GFP antibody or anti-IgG (control), protein G-Sepharose, LC-MS/MS.

Assay [2] deals with T2, c-Myc-BirA-Rab34 (UniProt Q64008).
T2 sequence: T1 sequence
The assay is described as follows: proximity labelling; BioID: 3T3-L1 cells transfected at D6 with c-Myc-BirA-Rab34 or c-Myc-BirA (mock), 50 µmol/L biotin 24 h, streptavidin Dynabeads, MS/MS; only proteins absent in mock-transfected cells kept.

For assay [3], the target named is T2, c-Myc-BirA-Rab34. The assay is described as above. This is another data set of the same source.
Assay [4] concerns the target T1, GFP-Rab34. The assay is described as follows: affinity purification with mass spectrometry; 3T3-L1 cells transfected at D6 with GFP-Rab34 or mock vector, anti-GFP antibody or anti-IgG (control), protein G-Sepharose, LC-MS/MS. The source holds these as a separate data set.

Take “E1 Ubiquitin-Activating Enzyme 1 (UBA1) (from UniProt Q02053 1-1058)”: the binding entry in assay [1] and in assay [2] was “binds” throughout.
“ISG15 Ubiquitin Like Modifier (ISG15) (from UniProt Q64339 1-155)”: the binding result in assay [1] is on record as “binds”.

B1: Ubiquitin C-Terminal Hydrolase L3 (UCHL3) (enzyme, UniProt Q9JKB1 1-230)
chain: MEGQRWLPLEANPEVTNQFLKQLGLHPNWQFVDVYGMEPELLSMVPRPVCAVLLLFPITEKYEVFRTEEEEKIKSQGQDVTSSVYFMKQTISNACGTIGLIHAIANNKDKMHFESGSTLKKFLEESVSMSPEERAKFLENYDAIRVTHETSAHEGQTEAPSIDEKVDLHFIALVHVDGHLYELDGRKPFPINHGKTSDETLLEDAIEVCKKFMERDPDELRFNAIALSAA
Consider B1, for which, in assay [3], the binding result is “binds”.

B2: Fatty Acid Binding Protein 5 (FABP5) (protein, UniProt Q05816 1-135)
chain: MASLKDLEGKWRLMESHGFEEYMKELGVGLALRKMAAMAKPDCIITCDGNNITVKTESTVKTTVFSCNLGEKFDETTADGRKTETVCTFQDGALVQHQQWDGKESTITRKLKDGKMIVECVMNNATCTRVYEKVQ
In the case of B2, the binding result in assay [4] and in assay [3] was “binds” each time.
